Data: patent US10906864B2, “Nitroalkene non steroidal anti-inflammatory drugs (NA-NSAIDS) and methods of treating inflammation related conditions” (Institut Pasteur de Montevideo, priority 2017, dated 2021)

Test: Adduct formation with beta mercaptoethanol followed spectrophotometrically
Settings: 100 mM phosphate buffer pH 7.4; PARANA 30 μM/BME 30 μM; IBUNA 50 μM/BME 250 μM; FluFENA 12.5 μM/BME 125 μM; BANA 10 μM/BME 30 μM; PheNA 50 μM/BME 500 μM

| Structure (SMILES) | nitroalkene NSAID adduction with BME (absorbance change) |
| --- | --- |
| O=C(O)c1ccc(/C=C/[N+](=O)[O-])cc1 [BANA, (E)-4-(2-nitrovinyl)benzoic acid] | absorbance increase |
| O=C(O)c1cc(/C=C/[N+](=O)[O-])ccc1Nc1cccc(C(F)(F)F)c1 [FluFENA, (E)-5-(2-nitrovinyl)-2-((3-(trifluoromethyl)phenyl)amino)benzoic acid] | absorbance increase |
| CC(C)Cc1ccc(C(C)C(=O)O)cc1/C=C/[N+](=O)[O-] (centres unmarked) [IBUNA, (E)-2-(4-isobutyl-3-(2-nitrovinyl)phenyl)propanoic acid] | absorbance increase |
| CC(=O)Nc1ccc(O)c(/C=C/[N+](=O)[O-])c1 [PARANA, (E)-N-(4-hydroxy-3-(2-nitrovinyl)phenyl)acetamide] | absorbance increase |
| O=[N+]([O-])/C=C/c1ccc(O)cc1 [PheNA, (E)-4-(2-nitrovinyl)phenol] | absorbance increase |
